No constants are given. Whether binding was seen depends on the method and setting. Some results given as binding are weak or reduced against the parent protein; the word gives no strength. One block for each binder: values may come before it.
Legend:
[1] = target: BCMA on BCMA-positive cells (A549-BCMA, U266) (UniProt Q02223); assay: flow cytometry, FITC-labelled VHH on U266 cells
BCMA抗原 = BCMA抗原 (UniProt Q02223); assay: ELISA on antigen coated at 10ug/mL
[2] = target: BCMA on BCMA-positive cells (A549-BCMA, U266) (UniProt Q02223); assay: flow cytometry, FITC-labelled VHH on A549-BCMA cells

Protein sequences, listed by entry. Tags and fused reporters are not part of them. Lines headed by an entry give the natural chain unless they say otherwise; changes in a name come on top. Residues count along the entry.
UniProt Q02223: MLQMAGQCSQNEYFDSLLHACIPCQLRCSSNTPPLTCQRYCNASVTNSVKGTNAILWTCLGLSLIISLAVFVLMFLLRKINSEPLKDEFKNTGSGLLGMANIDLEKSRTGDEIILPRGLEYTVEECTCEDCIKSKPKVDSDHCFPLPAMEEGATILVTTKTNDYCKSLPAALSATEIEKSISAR
BCMA抗原: residues 1-54 of Q02223

- binding [1]: binds
- binding (BCMA抗原): binds
- binding [2]: binds
B1: BCMA单域抗体B65 (VHH)
VHH: QLQLVESGGGLVQPGGSLRLSCAASGSISGIYAMGWYRQAPGKQRRLVAAITSGGDTFHADSVKGRFTISRDNAKNTMYLQMNSLKPEDTAVYYCNVAPWGDYDVRADFGSWGQGTQVTVSS

- binding [1]: binds
- binding (BCMA抗原): binds
- binding [2]: binds
B2: BCMA单域抗体B1 (VHH)
VHH: QVQLVESGGGLVQPGGSLRLSCTASGSILSIYAMGWYRQAPGKQRELVAAINISSNTFYRDSVKGRFTISRDNAENTVYLQMNSLKPEDTAVYYCNVAPWGDYDVKTDFGGWGQGTQVTVSS

Reference: patent publication CN109942708A
